Laboratory results as given in PubChem BioAssay AID1471 (National Center for Advancing Translational Sciences (NCATS), 2008).
Where “and” joins values, the source holds several entries; their conditions need not be identical. Equal entries are not always repeated. The campaign covered roughly 230,000 compounds. About 310 (0.13%) were called active. This list was built around the results that the source calls inconclusive (neither active nor inactive); the mix of calls is not that of the screen. Calls come from the whole dose curve; as a rule, active = well fitted activation curve with a large enough effect; inconclusive = small, poorly fitted or top-dose-only effect; inactive = no such curve, though single readings can be large or run the other way. A potency beside an inconclusive call is a rough fit, not a confirmed value.

Assay: qHTS Multiplex Assay to Identify Dual Action Probes in a Cell Model of Huntington: Cytoprotection (ATP); note: nearly all actives have a fitted effect of over 45% in size;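 for cytoprotection (ATP increase): toxic huntingtin expression switched on by the ecdysone agonist tebufenozide; % of control where 0% means no effect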
Details: PC12 HTT-Q103 induced, ATP luminescence, 40 h; cytoprotection (ATP increase): at 56.4 µM (top of the series) unless noted
Outline: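 Compounds were screened for protection of PC12 cells against cell death after tebufenozide induction (100 nM final) of mutant Huntingtin exon 1 (Q103) fused to GFP.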
Potency is the fitted concentration of half-maximal effect.

Row | Compound | Potency | cytoprotection (ATP increase)
1 | CCC1OC(=O)CC(O)C(C)[C@@H](O[C@@H]2OC(C)[C@H](O[C@@H]3C[C@@](C)(O)C(O)C(C)O3)C(N(C)C)C2O)[C@H](CC=O)CC(C)C(=O)/C=C/C(C)=C/[C@@H]1COC1OC(C)C(O)C(OC)[C@@H]1OC (stereo partly specified) | inactive | –
2 | Cc1ccc(NC(=O)Cn2c(=O)cnc3ccccc32)cc1S(=O)(=O)N(C)C | – | inactive: -0.882% [at 1.9 µM]
3 | COc1ccc(-c2cccc(C3CC=CC4C3C(=O)N(Cc3ccccc3)C4c3ccc(OC)c(Cl)c3)c2)cc1 (stereo unspecified) | – | inactive: -44.8% [at 10 µM]
4 | COc1cc(C2Nn3c(nnc3-c3ccccc3OC)S2)ccc1O (stereo unspecified) | inconclusive: 5.62 µM [activator, single point] | –
5 | Cc1cc(=O)oc(C)c1C(=O)Nc1ccccc1F | – | inactive: -2.46% [at 10 µM]
6 | Cc1ccc(C(=O)N2CCCC2)cc1S(=O)(=O)Nc1cccc(C)c1C | inconclusive: 6.31 µM [activator, single point] | –
7 | CC(=O)Nc1cccc(NC(=O)CSc2ncc(-c3ccc(Cl)cc3)n2Cc2ccco2)c1 | – | inactive: -10.3% [at 10 µM]
8 | Cc1ccc(Sc2ncccc2C(=O)O)cc1 | inconclusive: 0.562 µM [activator, single point] | –
9 | O=C(O)c1cccc(-n2cccc2/C=C2\NC(=O)N(Cc3ccc(F)cc3)C2=O)c1 | inconclusive: 31.6 µM [activator, single point] | –
10 | CC1(C)CO[C@H](CC(=O)O)CN1 | inconclusive: 0.282 µM [activator, full curve] | –
11 | Cc1[nH]n(-c2ccccc2)c(=O)c1C=Nc1cccc2cccnc12 | – | inactive: -68.8% [at 10 µM]
12 | OC(CNCCCN1CCCCC1)COc1ccccc1 (stereo unspecified) | inactive | –
13 | S=C(S)OC1CC2CC1C1CCCC21 (stereo unspecified) | inconclusive: 20 µM [activator, partial curve] | –
14 | CC(C)CNC(=S)N1CCN(C(c2ccccc2)c2ccccc2)CC1 | inconclusive: 1 µM [activator, partial curve] | –
15 | CCC(C(=O)OCCOCCN(CC)CC)c1ccccc1 (stereo unspecified) | inconclusive: 0.891 µM [activator, full curve, poor fit] | –
16 | CC1(C)CC2CN(C(=O)Cc3ccccc3)C(C)(C2)C1 (stereo unspecified) | inactive | –
17 | COc1ccc(-c2nc(C#N)c(N3CCN(c4cccc(Cl)c4)CC3)o2)cc1OC | – | inactive: -18.6% [at 0.074 µM]
18 | O=C(CCc1ccc(O)cc1)c1c(O)cc(O)cc1O[C@@H]1O[C@H](CO)[C@@H](O)[C@H](O)[C@H]1O | inconclusive: 0.708 µM [activator, single point] | –
19 | CCCS(=O)(=O)N1CCN(Cc2ccco2)CC1 | inconclusive: 7.94 µM [activator, partial curve, poor fit] | –
20 | COc1ccc(C(C)=O)cc1CSc1ncccn1 | inconclusive: 0.355 µM [activator, full curve, poor fit] | –
21 | COc1cccc(CN=CC2=C(O)CC(C)(C)CC2=O)c1OC | inactive | –
22 | CN(CC(=O)Nc1ccccc1N1CCOCC1)S(=O)(=O)c1ccc(Cl)cc1 | inconclusive: 35.5 µM [activator, single point] | –

Sorted by heavy-atom count (largest number first): 17 of the compounds above
Row | Compound | Potency | cytoprotection (ATP increase)
1 | CCC1OC(=O)CC(O)C(C)[C@@H](O[C@@H]2OC(C)[C@H](O[C@@H]3C[C@@](C)(O)C(O)C(C)O3)C(N(C)C)C2O)[C@H](CC=O)CC(C)C(=O)/C=C/C(C)=C/[C@@H]1COC1OC(C)C(O)C(OC)[C@@H]1OC (stereo partly specified) | inactive | –
3 | COc1ccc(-c2cccc(C3CC=CC4C3C(=O)N(Cc3ccccc3)C4c3ccc(OC)c(Cl)c3)c2)cc1 (stereo unspecified) | – | inactive: -44.8% [at 10 µM]
7 | CC(=O)Nc1cccc(NC(=O)CSc2ncc(-c3ccc(Cl)cc3)n2Cc2ccco2)c1 | – | inactive: -10.3% [at 10 µM]
18 | O=C(CCc1ccc(O)cc1)c1c(O)cc(O)cc1O[C@@H]1O[C@H](CO)[C@@H](O)[C@H](O)[C@H]1O | inconclusive: 0.708 µM [activator, single point] | –
17 | COc1ccc(-c2nc(C#N)c(N3CCN(c4cccc(Cl)c4)CC3)o2)cc1OC | – | inactive: -18.6% [at 0.074 µM]
2 | Cc1ccc(NC(=O)Cn2c(=O)cnc3ccccc32)cc1S(=O)(=O)N(C)C | – | inactive: -0.882% [at 1.9 µM]
6 | Cc1ccc(C(=O)N2CCCC2)cc1S(=O)(=O)Nc1cccc(C)c1C | inconclusive: 6.31 µM [activator, single point] | –
4 | COc1cc(C2Nn3c(nnc3-c3ccccc3OC)S2)ccc1O (stereo unspecified) | inconclusive: 5.62 µM [activator, single point] | –
21 | COc1cccc(CN=CC2=C(O)CC(C)(C)CC2=O)c1OC | inactive | –
15 | CCC(C(=O)OCCOCCN(CC)CC)c1ccccc1 (stereo unspecified) | inconclusive: 0.891 µM [activator, full curve, poor fit] | –
12 | OC(CNCCCN1CCCCC1)COc1ccccc1 (stereo unspecified) | inactive | –
16 | CC1(C)CC2CN(C(=O)Cc3ccccc3)C(C)(C2)C1 (stereo unspecified) | inactive | –
20 | COc1ccc(C(C)=O)cc1CSc1ncccn1 | inconclusive: 0.355 µM [activator, full curve, poor fit] | –
19 | CCCS(=O)(=O)N1CCN(Cc2ccco2)CC1 | inconclusive: 7.94 µM [activator, partial curve, poor fit] | –
8 | Cc1ccc(Sc2ncccc2C(=O)O)cc1 | inconclusive: 0.562 µM [activator, single point] | –
13 | S=C(S)OC1CC2CC1C1CCCC21 (stereo unspecified) | inconclusive: 20 µM [activator, partial curve] | –
10 | CC1(C)CO[C@H](CC(=O)O)CN1 | inconclusive: 0.282 µM [activator, full curve] | –

Remaining list, next part.

Row | Compound | Potency | cytoprotection (ATP increase)
23 | CCN(CC)CCCNC(=O)c1ccc2c(=O)n(Cc3ccc4c(c3)OCO4)c(=S)[nH]c2c1 | inconclusive: 0.112 µM [activator, full curve] | –
24 | CCN1CCN(C(=O)CCc2nnc(CCCCc3ccccc3)o2)[C@@H](C)C1=O | – | inactive: 5.26% [at 10 µM]
25 | Cc1cc(C(=O)CSc2nnnn2-c2ccccc2)c(C)n1CCc1ccccc1 | inconclusive: 5.62 µM [activator, single point] | –
26 | COc1ccccc1CNc1cc(-c2ccccc2CN(C)C)ncn1 | inconclusive: 7.94 µM [activator, single point] | –
27 | COc1ccc(C(=O)Nc2cc3c(oc2=O)CCCC3=O)cc1 | inconclusive: 5.62 µM [activator, single point] | –
28 | CCNS(=O)(=O)c1ccc(CCC(=O)NCCC2=CCCCC2)cc1 | inconclusive: 1.26 µM [activator, single point] | –
29 | CN(C(=O)COC(=O)c1nc(Cl)c(Cl)c(Cl)c1Cl)C1CCS(=O)(=O)C1 (stereo unspecified) | inactive | –
30 | FC(F)(F)c1ccc(C2Nc3cccc4cccc(c34)N2)cc1 | inconclusive: 0.708 µM [activator, full curve, poor fit] | –
31 | COc1ccc(-n2c(=O)cc(N3CCN(c4ccccc4OC)CC3)[nH]c2=O)cc1 | inactive | –
32 | COC(=O)C/C=C\[C@@H](C)[C@@H](CO)NS(=O)(=O)c1ccc(C)cc1 | inconclusive: 0.0016 µM [activator, full curve, poor fit] | –
33 | CNCCCC1c2ccccc2C=Cc2ccccc21 | inconclusive: 0.0316 µM [activator, full curve, poor fit] | –
34 | COCCN=C1Sc2nc3c(C)cccc3cc2CN1Cc1ccco1 | inconclusive: 35.5 µM [activator, single point] | –
35 | CCc1ccc(C(N)=S)cc1 | inconclusive: 0.794 µM [activator, single point] | –
36 | Cc1cc(NC(=O)CSc2nnc(-c3ccncc3)n2C)n(-c2ccccc2)n1 | inconclusive: 5.62 µM [activator, single point] | –
37 | O=C(Cn1cc(C(=O)c2ccco2)c2ccccc21)NC1CCCCC1 | inconclusive: 35.5 µM [activator, single point] | –
38 | O=[N+]([O-])c1cc(/C=N/N2CCN(C3c4ccccc4-c4ccccc43)CC2)ccc1Cl | inconclusive: 31.6 µM [activator, partial curve] | –
39 | CC(C)Oc1ccc(C(CC(=O)N(C)CCC#N)c2ccc(F)cc2)cc1 (stereo unspecified) | – | inactive: -0.607% [at 10 µM]
40 | N#CC(C#N)=C1C=CC=CN1/C(=C\c1ccco1)C(=O)c1ccccc1 | inconclusive: 5.62 µM [activator, single point] | –
41 | C=CC[n+]1ccc2ccccc2c1C | inconclusive: 5.01 µM [activator, single point] | –
42 | Cc1cccc(-c2ncc(CN3CCN(C4CCCC4)C(CCO)C3)cn2)c1 (stereo unspecified) | inconclusive: 6.31 µM [activator, single point] | –
43 | CCOc1cc(N2CCOCC2)c(OCC)cc1NC(=O)c1c(-c2ccccc2Cl)noc1C | inactive | –
44 | O=C(Nc1ccc(F)cc1F)N1CCCN(c2ccc([N+](=O)[O-])cn2)CC1 | – | inactive: 1.92% [at 10 µM]

Row | Compound | Potency | cytoprotection (ATP increase)
45 | COc1ccc(N2C(=S)NC(C)(C)CC2(C)c2ccc(OC(C)=O)cc2OC(C)=O)cc1 (stereo unspecified) | inconclusive: 0.501 µM [activator, single point] | –
46 | NCCC[C@@H](CC(=O)N[C@@H]1CCNC[C@H]1C(=O)N[C@H](CC(=O)N[C@@H](CCC(=O)O)CC(=O)O)Cc1c[nH]c2ccccc12)NC(=O)C[C@H](CO)NC(=O)[C@@H]1CNCC[C@H]1N | inconclusive: 35.5 µM [activator, single point] | –
47 | CC(=O)Nc1ccc(S(=O)(=O)N(CCCN2CCOCC2)Cc2cccs2)cc1 | inconclusive: 0.398 µM [activator, single point] | –
48 | CC1CCN(S(=O)(=O)c2ccc(C(=O)Nc3sccc3C(N)=O)cc2)CC1 | inconclusive: 3.98 µM [activator, single point] | –
49 | COc1ccc(C(=O)Nc2sc(C)c(C)c2CN2CC(C)OC(C)C2)cc1 (stereo unspecified) | inconclusive: 0.891 µM [activator, single point] | –
50 | CS(=O)(=O)N(CC(=O)Nc1cccc([N+](=O)[O-])c1)c1cccc(F)c1 | – | inactive: -4.83% [at 10 µM]
51 | COc1ccc(C(=O)N2CCC3(CC2)CN(c2ccccn2)C3)cc1 | inactive | –
52 | CCCc1cc(=O)[nH]c(=S)[nH]1 | inconclusive: 1 µM [activator, partial curve, poor fit] and inconclusive: 251 nM [activator, full curve, poor fit] | –
53 | CCN(CC)CCCNc1nc2cc(OC)c(OC)cc2c2nc(-c3cccnc3)nn12 | inconclusive: 35.5 µM [activator, single point] | –
54 | CCOc1ccc(N2CC(C(=O)N3CCc4ccccc4C3)CC2=O)cc1 (stereo unspecified) | inconclusive: 0.355 µM [activator, partial curve] | –
55 | O=C(O)/C=C/C(=O)Nc1ccc(NC(=O)c2ccccc2)c(Cl)c1 | inactive | –
56 | C=CCC(CC=C)(C(N)=O)c1ccccc1 | inconclusive: 3.16 µM [activator, single point] | –
57 | Cc1cc(C)cc(OC(=O)CS(=O)c2ccc(C(F)(F)F)cc2[N+](=O)[O-])c1 (stereo unspecified) | inconclusive: 15.8 µM [activator, single point] | –
58 | COc1ccc2c(Cl)c(C(=O)NN)sc2c1 | inactive | –
59 | COc1cc(NC(=O)CCc2nc(-c3cccs3)no2)cc(OC)c1OC | inactive | –
60 | CC1Cc2ccccc2N1C(=S)NC(=O)c1ccco1 (stereo unspecified) | inactive | –
61 | COc1ccc(NC(=O)c2ccc(C#N)cc2)cc1NS(=O)(=O)c1ccc(F)cc1 | active: 1 µM | –
62 | O=C(Nc1ccc(N2CCOCC2)cc1)c1ccncc1 | inconclusive: 2.51 µM [activator, single point] | –
63 | O=C1C2=CC[C@H]3C(=O)N(Cc4ccccc4)C(=O)[C@@H]3[C@@H]2[C@H](O)[C@@H]2O[C@H]12 | inconclusive: 6.31 µM [activator, single point] | –
64 | CC1=CC(C)(C)N(C(=O)CCl)c2ccccc21 | – | inactive: -7.78% [at 10 µM]
65 | CCn1c(=S)[nH]c2c(c1=O)C(C)(C)Cc1ccccc1-2 | inconclusive: 0.0891 µM [activator, full curve, poor fit] | –
66 | Cc1cc(C(=O)N/N=C/c2ccco2)c2ccccc2n1 | inconclusive: 0.1 µM [activator, full curve, poor fit] | –
